This note sets out measurements from the supplement of paper PMC12823440, “Inhibitors supercharge kinase turnover through native proteolytic circuits” (Nature, 2025).

Amino acid sequences for entries named in this document (tags omitted).
UniProt P36888, whole entry: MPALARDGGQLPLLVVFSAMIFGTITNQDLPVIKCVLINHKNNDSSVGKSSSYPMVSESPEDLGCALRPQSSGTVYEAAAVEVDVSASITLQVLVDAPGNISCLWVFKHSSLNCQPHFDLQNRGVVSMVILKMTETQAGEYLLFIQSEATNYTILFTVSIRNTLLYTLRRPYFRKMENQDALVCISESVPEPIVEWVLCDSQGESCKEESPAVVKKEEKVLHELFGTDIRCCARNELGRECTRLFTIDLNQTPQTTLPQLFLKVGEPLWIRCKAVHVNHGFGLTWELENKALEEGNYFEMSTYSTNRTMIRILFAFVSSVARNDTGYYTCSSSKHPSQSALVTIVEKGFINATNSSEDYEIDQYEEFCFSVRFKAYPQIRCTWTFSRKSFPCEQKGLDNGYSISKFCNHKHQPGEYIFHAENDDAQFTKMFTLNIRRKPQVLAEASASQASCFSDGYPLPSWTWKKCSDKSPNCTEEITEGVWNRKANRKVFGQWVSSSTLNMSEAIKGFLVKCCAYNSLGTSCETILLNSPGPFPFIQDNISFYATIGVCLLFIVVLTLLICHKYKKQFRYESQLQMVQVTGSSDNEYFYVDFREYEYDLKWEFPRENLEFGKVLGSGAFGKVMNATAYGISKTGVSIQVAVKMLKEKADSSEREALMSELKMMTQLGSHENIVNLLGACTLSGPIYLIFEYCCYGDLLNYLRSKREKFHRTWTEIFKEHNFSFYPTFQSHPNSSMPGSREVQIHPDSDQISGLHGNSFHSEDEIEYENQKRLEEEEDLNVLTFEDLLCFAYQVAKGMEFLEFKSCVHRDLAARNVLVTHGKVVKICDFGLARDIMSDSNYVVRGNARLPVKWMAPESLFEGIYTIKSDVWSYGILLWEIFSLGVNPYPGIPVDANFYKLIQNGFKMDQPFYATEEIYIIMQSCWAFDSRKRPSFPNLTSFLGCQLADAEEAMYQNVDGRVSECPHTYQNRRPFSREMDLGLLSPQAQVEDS

Each structure is given as a SMILES string. Counter-ions that a name gives are not always drawn. Some of the results follow. The calls rarely recur for the same compound in another form.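 Kinases, fused to nanoluciferase, were expressed in K562 cells; luminescence was measured every 4 h from 2 to 18 h as percent of control (DMSO = 100%, positive control = 0%). A time point is decreased if signal falls significantly (2 sigma). Hits were called by the authors by a rule that is not shown; the count of time points alone does not decide it.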

The target in the assay is FLT3 (UniProt P36888). The assay is described as follows: number of time points (of 5) at which kinase-Nluc abundance scored as decreased, DMSO-normalised (count); higher = more persistent destabilization. Particulars: K562; 2-18 h.
Take `C=C(CCC=C(C)C)[C@H]1CC[C@]2(C)[C@@H]1[C@H](O)C[C@@H]1[C@@]3(C)CC[C@H](O[C@@H]4O[C@H](CO)[C@@H](O)[C@H](O)[C@H]4O[C@@H]4O[C@H](CO)[C@@H](O)[C@H](O)[C@H]4O)C(C)(C)[C@@H]3CC[C@]12C` [Ginsenoside Rk1] (10 µM): the “number of time points” value amounted to 0.
With `CCn1c(=O)c(-c2ccc(-c3cncs3)cc2Cl)cc2cnc(Nc3ccc(N4CCN(C)CC4)cc3)nc21` (2.5 µM) the figure was 0.
On to `Nc1nccc(Oc2ccc(NC(=O)c3cn(COP(=O)(O)O)cc(-c4ccc(F)cc4)c3=O)cc2F)c1Cl` (10 µM), for which the “number of time points” value was 0.
The figure for `Cc1cc(-c2cc(OC(=O)c3ccccc3)ccc2Cl)cc2nnc(Nc3ccc(OCCN4CCCC4)cc3)nc12` (0.5 µM) is 0.
The figure for `OC[C@H]1O[C@@H](Oc2cc3c(O)cc(O)cc3[o+]c2-c2cc(O)c(O)c(O)c2)[C@H](O)[C@@H](O)[C@@H]1O` [Delphinidin 3-glucoside (chloride)] (10 µM) is 0; for `O=C(/C=C/c1ccc(O)c(O)c1)c1ccc(O[C@@H]2O[C@H](CO)[C@@H](O)[C@H](O)[C@H]2O)c(O)c1O` [Marein] (10 µM) it is 0.
With `O=C1Nc2nc(-c3c(O)cccc3OCC3CC3)cc([C@@H]3CCCNC3)c2CO1` [Bay 65-1942 (hydrochloride)] (10 µM) the figure was 1; with `CC(C)CN(CC(=O)N1CCN(CC(OCc2ccc3ccccc3c2)c2ccc(Cl)cc2Cl)CC1)CC(C)C` (stereo not drawn) [LYN-1604 (dihydrochloride)] (2.5 µM), 0.
